Consider one molecule from paper PMC9878124.

No constants are given. Whether binding was seen depends on the method and setting. In cells and extracts the contact can be indirect. For part of these data: Binding calls can cover weak binding; strength is not graded here. Tags and fused reporters may be left off the sequences shown.

Experiment in all cases: split reporter; BiFC: BrFT-like proteins fused to nEYFP (pSPYNE-35S) and BrFD or AtFD fused to cEYFP (pSPYCE-35S), co-infiltrated with P19 into N. benthamiana leaves; confocal microscopy after 48 h
Experiment [1] deals with BrBFT fused to the N-terminal half of EYFP (BrBFT-nEYFP) (Brassica rapa ssp. pekinensis (Chinese cabbage)).
Experiment [2] deals with BrBFT^3m fused to the N-terminal half of EYFP (Brassica rapa ssp. pekinensis (Chinese cabbage)).
Experiment [3] addresses BrFT1 fused to the N-terminal half of EYFP (BrFT1-nEYFP) (Brassica rapa ssp. pekinensis (Chinese cabbage)).
The target in experiment [4] is BrFT2 fused to the N-terminal half of EYFP (BrFT2-nEYFP) (Brassica rapa ssp. pekinensis (Chinese cabbage)).
Experiment [5] has as its target BrTSF fused to the N-terminal half of EYFP (BrTSF-nEYFP) (Brassica rapa ssp. pekinensis (Chinese cabbage)).
In experiment [6] the target is BrTSF^3m fused to the N-terminal half of EYFP (Brassica rapa ssp. pekinensis (Chinese cabbage)).

B1: AtFD fused to the C-terminal half of EYFP (protein, UniProt Q84JK2 1-285)
chain: MLSSAKHQRNHRLSATNKNQTLTKVSSISSSSPSSSSSSSSTSSSSPLPSQDSQAQKRSLVTMEEVWNDINLASIHHLNRHSPHPQHNHEPRFRGQNHHNQNPNSIFQDFLKGSLNQEPAPTSQTTGSAPNGDSTTVTVLYSSPFPPPATVLSLNSGAGFEFLDNQDPLVTSNSNLHTHHHLSNAHAFNTSFEALVPSSSFGKKRGQDSNEGSGNRRHKRMIKNRESAARSRARKQAYTNELELEVAHLQAENARLKRQQDQLKMAAAIQQPKKNTLQRSSTAPF
In the case of B1, the binding entry in experiment [1] was “no binding”; in experiment [2], “binds”; in experiment [3], “binds”; in experiment [4], “binds”; in experiment [5], “no binding”; in experiment [6] it was “no binding”.
